This is one part of the list.

Sequences of proteins named here, by UniProt entry; tags and fusion partners are left off. A change or cut given only in a name is not applied to a line headed by its entry.
UniProt Q9BWU1: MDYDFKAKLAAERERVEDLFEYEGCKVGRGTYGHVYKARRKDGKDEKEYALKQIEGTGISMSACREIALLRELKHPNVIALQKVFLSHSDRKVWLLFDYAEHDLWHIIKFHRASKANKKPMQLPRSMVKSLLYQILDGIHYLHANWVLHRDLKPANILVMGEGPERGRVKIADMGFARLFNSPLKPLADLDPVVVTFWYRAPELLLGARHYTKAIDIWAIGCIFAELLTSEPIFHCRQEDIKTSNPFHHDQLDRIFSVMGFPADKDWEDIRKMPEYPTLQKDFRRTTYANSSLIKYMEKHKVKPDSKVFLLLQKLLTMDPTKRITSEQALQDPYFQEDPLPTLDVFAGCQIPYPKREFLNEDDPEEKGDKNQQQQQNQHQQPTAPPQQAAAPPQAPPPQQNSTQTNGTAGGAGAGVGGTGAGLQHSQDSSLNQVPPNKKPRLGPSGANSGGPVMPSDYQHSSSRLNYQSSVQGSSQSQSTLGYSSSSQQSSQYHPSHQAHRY
UniProt P30260, whole entry, looked up: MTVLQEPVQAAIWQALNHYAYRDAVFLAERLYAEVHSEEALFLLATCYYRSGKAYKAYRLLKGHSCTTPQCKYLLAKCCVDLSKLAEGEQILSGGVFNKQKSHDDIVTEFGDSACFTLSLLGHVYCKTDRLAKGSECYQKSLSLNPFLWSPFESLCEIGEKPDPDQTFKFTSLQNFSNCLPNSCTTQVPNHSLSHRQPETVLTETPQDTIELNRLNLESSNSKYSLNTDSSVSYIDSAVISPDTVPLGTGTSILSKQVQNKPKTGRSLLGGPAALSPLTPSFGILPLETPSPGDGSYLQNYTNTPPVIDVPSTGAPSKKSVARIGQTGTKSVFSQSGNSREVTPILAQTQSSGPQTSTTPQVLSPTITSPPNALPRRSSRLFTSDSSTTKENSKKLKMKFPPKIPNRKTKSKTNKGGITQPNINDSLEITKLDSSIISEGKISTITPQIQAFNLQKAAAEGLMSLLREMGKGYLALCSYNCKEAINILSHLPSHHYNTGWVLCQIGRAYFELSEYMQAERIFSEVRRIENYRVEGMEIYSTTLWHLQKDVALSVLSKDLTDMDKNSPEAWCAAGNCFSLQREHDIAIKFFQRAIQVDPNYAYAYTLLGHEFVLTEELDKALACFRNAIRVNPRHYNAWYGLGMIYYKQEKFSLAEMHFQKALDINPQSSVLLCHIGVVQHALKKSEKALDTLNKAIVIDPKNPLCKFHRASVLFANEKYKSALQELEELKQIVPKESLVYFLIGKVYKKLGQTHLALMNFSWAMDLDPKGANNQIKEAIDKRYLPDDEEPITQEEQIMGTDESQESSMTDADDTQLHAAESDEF
UniProt Q9BV73: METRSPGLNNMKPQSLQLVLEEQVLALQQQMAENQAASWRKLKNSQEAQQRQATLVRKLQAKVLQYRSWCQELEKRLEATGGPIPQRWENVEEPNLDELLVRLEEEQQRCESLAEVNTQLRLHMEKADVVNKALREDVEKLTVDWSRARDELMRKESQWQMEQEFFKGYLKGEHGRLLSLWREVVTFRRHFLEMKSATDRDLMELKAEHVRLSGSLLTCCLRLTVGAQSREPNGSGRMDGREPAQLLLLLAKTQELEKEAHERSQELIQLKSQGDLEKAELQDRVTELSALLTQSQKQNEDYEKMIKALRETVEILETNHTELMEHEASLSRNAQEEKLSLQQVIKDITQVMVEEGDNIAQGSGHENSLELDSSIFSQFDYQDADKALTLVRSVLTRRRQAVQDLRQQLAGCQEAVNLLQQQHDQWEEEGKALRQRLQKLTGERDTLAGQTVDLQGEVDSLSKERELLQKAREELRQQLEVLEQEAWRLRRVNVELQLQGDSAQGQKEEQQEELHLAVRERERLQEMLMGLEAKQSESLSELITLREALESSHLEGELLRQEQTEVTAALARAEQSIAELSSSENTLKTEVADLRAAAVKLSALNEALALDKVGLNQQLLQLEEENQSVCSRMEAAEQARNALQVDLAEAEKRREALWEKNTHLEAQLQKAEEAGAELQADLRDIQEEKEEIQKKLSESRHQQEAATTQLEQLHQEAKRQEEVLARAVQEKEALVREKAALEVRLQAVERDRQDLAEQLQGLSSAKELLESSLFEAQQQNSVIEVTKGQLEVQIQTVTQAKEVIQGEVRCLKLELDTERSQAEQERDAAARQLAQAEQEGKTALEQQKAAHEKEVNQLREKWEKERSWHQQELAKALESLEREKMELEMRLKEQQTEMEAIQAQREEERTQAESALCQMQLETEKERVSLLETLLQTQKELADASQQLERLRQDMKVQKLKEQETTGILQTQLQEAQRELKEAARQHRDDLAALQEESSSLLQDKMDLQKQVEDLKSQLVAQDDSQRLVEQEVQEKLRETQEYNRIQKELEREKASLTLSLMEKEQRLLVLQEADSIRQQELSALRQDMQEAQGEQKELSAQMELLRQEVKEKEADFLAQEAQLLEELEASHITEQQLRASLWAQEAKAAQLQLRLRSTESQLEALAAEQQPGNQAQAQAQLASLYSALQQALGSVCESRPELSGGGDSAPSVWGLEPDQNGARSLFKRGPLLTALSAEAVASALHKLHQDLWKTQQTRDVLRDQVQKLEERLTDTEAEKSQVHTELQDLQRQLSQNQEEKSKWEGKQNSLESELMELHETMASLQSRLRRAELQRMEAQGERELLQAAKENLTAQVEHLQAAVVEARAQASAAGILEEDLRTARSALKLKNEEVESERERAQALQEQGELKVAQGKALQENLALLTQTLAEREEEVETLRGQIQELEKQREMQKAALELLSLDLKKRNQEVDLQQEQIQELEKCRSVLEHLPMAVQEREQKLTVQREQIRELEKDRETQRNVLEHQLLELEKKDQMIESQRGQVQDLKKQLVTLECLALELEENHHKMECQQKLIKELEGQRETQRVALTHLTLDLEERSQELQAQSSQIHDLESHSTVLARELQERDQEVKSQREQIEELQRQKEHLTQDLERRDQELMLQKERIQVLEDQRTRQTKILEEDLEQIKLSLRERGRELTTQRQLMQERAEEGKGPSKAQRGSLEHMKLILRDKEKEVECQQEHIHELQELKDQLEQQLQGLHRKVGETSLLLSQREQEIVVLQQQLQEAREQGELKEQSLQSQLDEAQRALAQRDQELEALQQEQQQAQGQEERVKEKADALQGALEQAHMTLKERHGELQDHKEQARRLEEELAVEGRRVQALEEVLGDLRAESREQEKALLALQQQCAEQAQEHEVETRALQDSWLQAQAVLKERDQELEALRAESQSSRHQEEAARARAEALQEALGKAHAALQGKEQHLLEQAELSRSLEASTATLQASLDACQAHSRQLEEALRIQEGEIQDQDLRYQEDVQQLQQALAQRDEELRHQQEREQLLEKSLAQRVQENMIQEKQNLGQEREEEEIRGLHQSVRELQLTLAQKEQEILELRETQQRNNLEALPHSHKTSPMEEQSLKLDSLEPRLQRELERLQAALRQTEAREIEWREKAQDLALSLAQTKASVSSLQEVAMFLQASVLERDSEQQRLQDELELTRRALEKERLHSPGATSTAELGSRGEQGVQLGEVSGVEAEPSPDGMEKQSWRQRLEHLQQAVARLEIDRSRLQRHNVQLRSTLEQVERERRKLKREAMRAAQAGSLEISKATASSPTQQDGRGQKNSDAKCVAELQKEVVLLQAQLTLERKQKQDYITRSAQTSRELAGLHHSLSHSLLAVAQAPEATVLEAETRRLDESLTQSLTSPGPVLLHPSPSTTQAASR
UniProt Q5SZL2: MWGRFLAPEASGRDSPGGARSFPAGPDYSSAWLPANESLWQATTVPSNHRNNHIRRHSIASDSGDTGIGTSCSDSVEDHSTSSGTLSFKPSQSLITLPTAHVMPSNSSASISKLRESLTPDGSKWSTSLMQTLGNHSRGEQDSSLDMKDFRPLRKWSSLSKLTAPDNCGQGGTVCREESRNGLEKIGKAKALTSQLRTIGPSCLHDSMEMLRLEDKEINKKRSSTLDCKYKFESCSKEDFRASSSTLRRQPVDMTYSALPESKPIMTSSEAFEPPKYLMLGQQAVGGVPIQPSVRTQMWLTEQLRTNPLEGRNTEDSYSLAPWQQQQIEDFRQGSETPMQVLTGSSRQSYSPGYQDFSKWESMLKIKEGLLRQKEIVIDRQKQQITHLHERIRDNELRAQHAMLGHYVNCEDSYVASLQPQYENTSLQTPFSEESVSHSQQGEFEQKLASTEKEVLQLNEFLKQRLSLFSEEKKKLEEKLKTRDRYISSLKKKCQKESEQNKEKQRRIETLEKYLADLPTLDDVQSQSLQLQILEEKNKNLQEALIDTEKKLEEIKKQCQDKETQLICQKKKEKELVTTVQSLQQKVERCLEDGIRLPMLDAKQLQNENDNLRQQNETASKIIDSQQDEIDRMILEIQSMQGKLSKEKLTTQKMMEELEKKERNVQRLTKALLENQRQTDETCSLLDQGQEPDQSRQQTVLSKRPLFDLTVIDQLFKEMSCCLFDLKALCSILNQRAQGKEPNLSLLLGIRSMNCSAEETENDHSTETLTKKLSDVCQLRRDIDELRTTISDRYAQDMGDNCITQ
UniProt P57076: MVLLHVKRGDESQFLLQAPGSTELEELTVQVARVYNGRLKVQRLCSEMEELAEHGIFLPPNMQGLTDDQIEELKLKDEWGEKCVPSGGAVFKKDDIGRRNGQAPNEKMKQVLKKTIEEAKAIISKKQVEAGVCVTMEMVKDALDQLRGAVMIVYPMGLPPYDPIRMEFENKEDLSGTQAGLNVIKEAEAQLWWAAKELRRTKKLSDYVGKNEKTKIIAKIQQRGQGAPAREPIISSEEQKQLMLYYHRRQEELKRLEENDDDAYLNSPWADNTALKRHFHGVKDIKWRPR
UniProt Q8WUX2: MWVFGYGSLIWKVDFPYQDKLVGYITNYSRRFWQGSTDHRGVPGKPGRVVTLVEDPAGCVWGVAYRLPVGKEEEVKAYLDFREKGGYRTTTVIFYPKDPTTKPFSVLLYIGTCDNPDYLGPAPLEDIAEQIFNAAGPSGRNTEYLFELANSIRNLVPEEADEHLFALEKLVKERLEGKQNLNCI
UniProt P30307: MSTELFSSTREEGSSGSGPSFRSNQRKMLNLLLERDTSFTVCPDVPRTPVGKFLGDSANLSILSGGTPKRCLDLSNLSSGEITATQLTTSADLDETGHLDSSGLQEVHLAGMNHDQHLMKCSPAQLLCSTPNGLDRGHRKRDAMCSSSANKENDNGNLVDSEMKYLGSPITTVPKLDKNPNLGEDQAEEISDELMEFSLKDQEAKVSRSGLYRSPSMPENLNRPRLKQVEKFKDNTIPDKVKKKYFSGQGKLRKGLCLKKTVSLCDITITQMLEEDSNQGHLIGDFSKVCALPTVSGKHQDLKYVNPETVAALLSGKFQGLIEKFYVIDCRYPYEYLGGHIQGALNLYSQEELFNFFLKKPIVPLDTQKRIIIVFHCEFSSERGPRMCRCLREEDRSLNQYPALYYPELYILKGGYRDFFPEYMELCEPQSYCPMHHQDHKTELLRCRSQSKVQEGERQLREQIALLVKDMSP
UniProt Q12834, whole entry, looked up: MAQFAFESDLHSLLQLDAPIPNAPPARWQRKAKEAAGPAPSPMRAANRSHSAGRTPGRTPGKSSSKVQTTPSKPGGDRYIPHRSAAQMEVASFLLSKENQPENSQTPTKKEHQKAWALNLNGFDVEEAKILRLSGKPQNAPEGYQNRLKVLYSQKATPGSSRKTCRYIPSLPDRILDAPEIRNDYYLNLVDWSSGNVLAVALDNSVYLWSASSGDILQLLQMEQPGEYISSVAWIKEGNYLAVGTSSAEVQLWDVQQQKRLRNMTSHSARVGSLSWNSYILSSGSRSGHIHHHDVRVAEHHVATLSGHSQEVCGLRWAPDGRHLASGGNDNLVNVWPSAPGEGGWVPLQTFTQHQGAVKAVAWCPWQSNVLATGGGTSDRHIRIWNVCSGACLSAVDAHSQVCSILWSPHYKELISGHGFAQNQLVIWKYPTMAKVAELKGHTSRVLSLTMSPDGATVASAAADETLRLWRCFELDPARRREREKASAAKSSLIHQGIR
UniProt Q9P2B7: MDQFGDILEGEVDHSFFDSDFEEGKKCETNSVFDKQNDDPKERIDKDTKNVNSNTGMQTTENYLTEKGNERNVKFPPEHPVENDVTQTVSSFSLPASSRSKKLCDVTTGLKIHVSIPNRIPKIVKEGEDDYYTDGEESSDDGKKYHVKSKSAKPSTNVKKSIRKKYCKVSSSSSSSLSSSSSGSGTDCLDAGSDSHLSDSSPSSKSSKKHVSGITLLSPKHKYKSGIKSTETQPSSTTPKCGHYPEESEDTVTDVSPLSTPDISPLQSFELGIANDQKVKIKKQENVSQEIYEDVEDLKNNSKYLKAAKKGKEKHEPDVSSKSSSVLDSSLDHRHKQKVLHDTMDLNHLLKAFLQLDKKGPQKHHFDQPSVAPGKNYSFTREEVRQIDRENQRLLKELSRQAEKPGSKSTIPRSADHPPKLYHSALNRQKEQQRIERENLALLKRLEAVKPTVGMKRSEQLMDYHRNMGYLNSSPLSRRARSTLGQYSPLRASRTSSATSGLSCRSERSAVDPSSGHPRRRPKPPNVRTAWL

Compound in the first experiment: O=C(CCCCCCC(=O)Nc1ccccc1)NO [vorinostat]
As to the kind of experiment: log2 fold change, soluble protein after heating vs DMSO (PISA); higher = thermal stabilisation; K562 lysate, 10 uM; active = over 0.2 and 3.5 SD of the protein, either way, in both replicates (recomputed). The procedure, abridged: (§1)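 K562 pellets were dounce-homogenised in PBS pH 7.4 containing 1 mM MgCl2, and the crude extract, at 1 mg/mL protein, was exposed to 10 μM compound for 30 min. Aliquots were heated for 3 min across 48°C-58°C, pooled, brought to 0.5% NP-40 at 4°C and spun at 21,000xg for 90 min, with the supernatant taken as soluble protein. TMTpro 16plex LC-MS/MS with equalised channel sums quantified that protein. Values are log-two fold changes in thermal stability relative to solvent controls, taken from duplicates.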
Turning to CENPK (UniProt Q9BS16), the log2 fold change was inactive: 0.031.
Same read-out and setting: under CDK19 (UniProt Q9BWU1) stands inactive: -0.084.
Still for that read-out and setting: under CENPU (UniProt Q71F23) stands inactive: -0.167.
For CGGBP1 (UniProt Q9UFW8), the log2 fold change was inactive: 0.047.
In the case of CEP290 (UniProt O15078), the log2 fold change is inactive: -0.021.
The same measure, in the same setting: the value for CDC42 (UniProt P60953) was inactive: 0.017.
On the same count and under the same terms, the value for CD82 (UniProt P27701) was inactive: 0.27.
Same read-out and setting: the value for CDK8 (UniProt P49336) was inactive: -0.057; that for CEP120 (UniProt Q8N960) was inactive: 0.042.
Regarding CDC27 isoform 2 (UniProt P30260), the log2 fold change is inactive: -0.098.
On the same count and under the same terms, under CEP250 (UniProt Q9BV73) stands inactive: 0.012; under CEBPZ (UniProt Q03701), inactive: -0.156.
In the case of CEP85L isoform 4 (UniProt Q5SZL2), the log2 fold change was inactive: -0.112.
Same read-out and setting: the value for CDC37 (UniProt K7EKQ2) was inactive: -0.031; that for CEP83 (UniProt Q9Y592) was inactive: -0.003.
On the same count and under the same terms, the value for CD99 (UniProt P14209) was inactive: 0.152.
Same read-out and setting: the value for CD97 (UniProt P48960) was inactive: 0.105; that for CFAP298 (UniProt P57076) was inactive: -0.126.
As to CDK7 (UniProt P50613), the log2 fold change was inactive: -0.067.
Same read-out and setting: under CHAC2 (UniProt Q8WUX2) stands inactive: 0.066; under CDC23 (UniProt Q9UJX2), inactive: -0.149.
Same read-out and setting: the value for CFAP47 (UniProt Q6ZTR5) was inactive: 0.237; that for CDC25B (UniProt P30305) was inactive: -0.021.
The same measure, in the same setting: the value for CDC25C (UniProt P30307) was active: -0.271; that for CDK17 isoform 2 (UniProt Q00537) was inactive: 0.174; that for CD99L2 isoform 5 (UniProt Q8TCZ2) was inactive: 0.166.
For the target CFL2 (UniProt Q9Y281), the log2 fold change was inactive: 0.089.
The same measure, in the same setting: under CDC20 (UniProt Q12834) stands inactive: -0.178; under CDKN2AIP (UniProt Q9NXV6), inactive: 0.072.
Still for that read-out and setting: the value for CDK2AP2 (UniProt O75956) was inactive: 0.085.
Still for that read-out and setting: under CFAP97 (UniProt Q9P2B7) stands inactive: 0.013.

Compound in a further experiment: O=C(O)c1ccc2c(c1)nc(Nc1cccc(Cl)c1)c1ccncc12 [silmitasertib]
The experiment is described as above. The procedure, abridged:
as §1
As for CENPK (UniProt Q9BS16), the log2 fold change is inactive: -0.022.
For CDK19 (UniProt Q9BWU1), the log2 fold change was inactive: 0.187.
The same measure, in the same setting: the value for CENPU (UniProt Q71F23) was inactive: 0.051; that for CGGBP1 (UniProt Q9UFW8) was inactive: -0.009; that for CEP290 (UniProt O15078) was inactive: 0.118.
On the same count and under the same terms, under CDC42 (UniProt P60953) stands inactive: 0.061; under CD82 (UniProt P27701), inactive: 0.097; under CDK8 (UniProt P49336), inactive: 0.226.
Same read-out and setting: under CEP120 (UniProt Q8N960) stands inactive: -0.075.
Take CDC27 isoform 2 (UniProt P30260): the log2 fold change is inactive: -0.004.
Same read-out and setting: the value for CEP250 (UniProt Q9BV73) was inactive: 0.041; that for CEBPZ (UniProt Q03701) was inactive: 0.044.
The same measure, in the same setting: the value for CEP85L isoform 4 (UniProt Q5SZL2) was inactive: 0.017; that for CDC37 (UniProt K7EKQ2) was inactive: 0.012; that for CEP83 (UniProt Q9Y592) was inactive: -0.139.
Still for that read-out and setting: under CD99 (UniProt P14209) stands inactive: -0.068.
Turning to CD97 (UniProt P48960), the log2 fold change is inactive: -0.074.
On the same count and under the same terms, under CFAP298 (UniProt P57076) stands inactive: 0.028; under CDK7 (UniProt P50613), inactive: -0.021; under CHAC2 (UniProt Q8WUX2), inactive: -0.02.
On the same count and under the same terms, under CDC23 (UniProt Q9UJX2) stands inactive: 0.013; under CFAP47 (UniProt Q6ZTR5), inactive: -0.213; under CDC25B (UniProt P30305), inactive: -0.029.
Still for that read-out and setting: the value for CDC25C (UniProt P30307) was inactive: 0.009; that for CDK17 isoform 2 (UniProt Q00537) was active: 0.565.
Turning to CD99L2 isoform 5 (UniProt Q8TCZ2), the log2 fold change was inactive: 0.003.
Still for that read-out and setting: the value for CFL2 (UniProt Q9Y281) was inactive: -0.014.
On the same count and under the same terms, the value for CDC20 (UniProt Q12834) was inactive: 0.049.
Same read-out and setting: under CDKN2AIP (UniProt Q9NXV6) stands inactive: -0.037.
With CDK2AP2 (UniProt O75956), the log2 fold change is inactive: -0.013.
On the same count and under the same terms, the value for CFAP97 (UniProt Q9P2B7) was inactive: -0.017.

Compound in another experiment: O=C1NC(=O)C(c2cnc3ccccn23)=C1c1cn2c3c(cc(F)cc13)CN(C(=O)N1CCCCC1)CC2
Described as above. The procedure, abridged:
as §1
Regarding CENPK (UniProt Q9BS16), the log2 fold change was inactive: -0.02.
Same read-out and setting: under CDK19 (UniProt Q9BWU1) stands inactive: -0.038; under CENPU (UniProt Q71F23), inactive: 0.018.
With CGGBP1 (UniProt Q9UFW8), the log2 fold change was inactive: 0.011.
The same measure, in the same setting: the value for CEP290 (UniProt O15078) was inactive: -0.007; that for CDC42 (UniProt P60953) was inactive: 0.074.
For CDK8 (UniProt P49336), the log2 fold change is inactive: -0.053.
The same measure, in the same setting: under CEP120 (UniProt Q8N960) stands inactive: 0.135; under CDC27 isoform 2 (UniProt P30260), inactive: 0.016; under CEP250 (UniProt Q9BV73), inactive: 0.003.
On the same count and under the same terms, under CEBPZ (UniProt Q03701) stands inactive: 0.023; under CEP85L isoform 4 (UniProt Q5SZL2), inactive: -0.016; under CDC37 (UniProt K7EKQ2), inactive: -0.112.
Turning to CEP83 (UniProt Q9Y592), the log2 fold change was inactive: 0.027.
The same measure, in the same setting: the value for CD99 (UniProt P14209) was inactive: 0; that for CD97 (UniProt P48960) was inactive: -0.092; that for CFAP298 (UniProt P57076) was inactive: -0.009.
The same measure, in the same setting: the value for CDK7 (UniProt P50613) was inactive: 0.03; that for CHAC2 (UniProt Q8WUX2) was inactive: -0.012.
In the case of CDC23 (UniProt Q9UJX2), the log2 fold change is inactive: 0.017.
On the same count and under the same terms, the value for CFAP47 (UniProt Q6ZTR5) was inactive: 0.323; that for CDC25B (UniProt P30305) was inactive: -0.003; that for CDC25C (UniProt P30307) was inactive: 0.026.
Turning to CDK17 isoform 2 (UniProt Q00537), the log2 fold change was inactive: 0.103.
On the same count and under the same terms, the value for CD99L2 isoform 5 (UniProt Q8TCZ2) was inactive: -0.018; that for CFL2 (UniProt Q9Y281) was inactive: -0.048.
On the same count and under the same terms, the value for CDC20 (UniProt Q12834) was inactive: -0.028.
Still for that read-out and setting: under CDKN2AIP (UniProt Q9NXV6) stands inactive: -0.022.
In the case of CDK2AP2 (UniProt O75956), the log2 fold change was inactive: -0.088.
Still for that read-out and setting: under CFAP97 (UniProt Q9P2B7) stands inactive: -0.062.
